# Experimental data: the supplement of paper PMC10727501
# The list shows a part of the results. Repeats in this data set agree poorly, so a single value says little.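 Free-swimming zebrafish larvae were scored for O-bend response probability to dark flashes (naive: first five; training: remaining flashes of four 60-flash blocks; test: later 60-flash block) and for turning toward alternating leftward/rightward LED motion (OMR). Six treated larvae were compared with sixty 0.1% DMSO controls; |SSMD|≥2 defined a hit.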 Peptide text beside a SMILES is read from it. * marks the point of attachment. Cbz = O=C(OCc1ccccc1)*
# Test system: Danio rerio larvae (5 dpf, TLF)
# Test: Prob-Test (SSMD vs DMSO vehicle); higher = higher than vehicle (e.g. higher dark-flash O-bend response probability, or better optomotor performance)
# Conditions: 10 µM; pre-incubation: 30-90 min
row,Structure (SMILES),Prob-Test
1,Cl.c1ccc2c(CC3=NCCN3)cccc2c1 [Naphazoline HCl],-0.558
2,CC(C)C[C@@H](C=O)NC(=O)[C@H](CC(C)C)NC(=O)[C@H](CC(C)C)NC(=O)OCc1ccccc1 (Cbz-Leu-Leu-Leu-aldehyde),0.42
3,CN[C@H](CC(C)C)C(=O)N[C@H]1C(=O)N[C@@H](CC(N)=O)C(=O)N[C@H]2C(=O)N[C@H]3C(=O)N[C@@H](C(=O)N[C@H](C(=O)O)c4cc(O)cc(O)c4-c4cc3ccc4O)[C@H](O)c3ccc(c(Cl)c3)Oc3cc2cc(c3O[C@H]2O[C@H](CO)[C@@H](O)[C@H](O)[C@H]2O[C@H]2C[C@@](C)(N)[C@H](O)[C@H](C)O2)Oc2ccc(cc2Cl)[C@H]1O.Cl [Vancomycin HCl (Vancocin)],-0.203
4,COc1ccccc1N1CCN(CC(O)COc2cccc3ccccc23)CC1.Cl.Cl (configuration not stated) [Naftopidil DiHCl],-2.43
5,C/C=C1/[C@H]2C=C(C)C[C@]1(N)c1ccc(=O)[nH]c1C2 [(-)-Huperzine A (HupA)],-0.119
6,C=CC[C@@H]1/C=C(\C)C[C@H](C)C[C@H](OC)[C@@H]2O[C@@](O)(C(=O)C(=O)N3CCCC[C@H]3C(=O)O[C@H](/C(C)=C/[C@@H]3CC[C@H](O)[C@H](OC)C3)[C@H](C)[C@@H](O)CC1=O)[C@H](C)C[C@@H]2OC [Tacrolimus (FK506)],1.35
7,COc1cc(C(=O)NS(=O)(=O)c2ccccc2C)ccc1Cc1cn(C)c2ccc(NC(=O)OC3CCCC3)cc12 [Zafirlukast],-0.0274
